Data as given in publication PMC10147662, “Structural basis for the ligand promiscuity of the neofunctionalized, carotenoid-binding fasciclin domain protein AstaP” (Communications Biology, 2023).
Results are given in words; binding and its absence hold for the method and conditions named.

Key:
[1] = target: SynAstaP, mature form (no signal peptide), residues 27-180 (Synechocystis sp. PCC 6803) (UniProt P74615); assay: SEC; analytical SEC with diode-array detection, Superdex 200 Increase 5/150, 20 mM Tris-HCl pH 7.5, 150 mM NaCl, 3 mM NaN3, 5 mM βME; apparent Mw from column calibration; both purified
[2] = target: AstaP-orange1 (AstaPo1), mature protein, residues 21-223 (Coelastrella astaxanthina sp. Ki-4) (UniProt S6BQ14); assay: as above

B1: SynAstaP, mature form (no signal peptide), residues 27-180 (protein, UniProt P74615 27-180)
chain: GPHMEMETTEKSAVVSQAATDSAMTIVEVAAGNETFSTLVAAVKAADLVEALSAEGPFTVFAPTNDAFAALPAGTVESLLLPENKDKLVKILTYHVVPGKITAAQVQSGEVASLAGEALTFKVKDGKVKVNKATVISADVDASNGVIHVIDQVILPPM
binding [1]: no binding (tested: 500 μM)

B2: AstaP-orange1 (AstaPo1), mature protein, residues 21-223 (protein, UniProt S6BQ14 21-223)
chain: GPHMATPKANATTAKPASTTSTPVYATLSNAVTAGAAAPQLTTLFAAVRAANVTGALTANTTWTILAPTNDAFAKRLAKLNLTADAVLKNKDLLVKILSYHVIPSGAVYSKALKDNATVATALKDASVTVRLYQGKVMFKGPVNKAQVTVADIKAGGSVIHVINDVLLPPGVVSDAVAKQWKAEWEAMKAEKKVAPKATTGRRFLLF
binding [2]: no binding
